Experimental data as given in publication PMC9374667 (Communications Biology, 2022).
Several values for one entry are separate records, joined by “and”; a condition that tells them apart may be missing. Equal entries are not always repeated. The source gives many values for each of these; only a part stands here.

Assays:
Assay type in all cases: in vivo
db/db mice [1] = assay: Body weight of db/db mice during 35-day treatment; settings: 150 mg/kg gavage once per day
Description: (§1) The lean wild type control and the db/db control mice were given equal vehicle volume (0.5% CMC-Na solution). All mice were monitored for food intake, body weight, and fasting blood glucose during the 35-day trial. Glucose tolerance test (GTT) and insulin resistance test (ITT) were performed at 4 and 5 weeks of treatment, respectively. Metabolic analysis was performed at 5 weeks of treatment. At the end of the study, blood samples were taken through the retroorbital venous sinus of mice, fat depots (brown fat, inguinal subcutaneous fat, epididymal fat, perirenal fat and mesenteric fat depot) were dissected, weighed, and immediately frozen in liquid nitrogen and stored at −80 °C until required. Weight of fat depots are expressed in percentage (fat depots weight /bodyweight * 100%).

db/db mice [2] = assay: Glucose tolerance test (GTT); design: unit not given here; settings: individual mice
db/db mice [3] = assay: Insulin tolerance test (ITT), AUC and initial slope; settings: BJ 150mg/kg, individual mice, in mmol/L (unit assumed)
Description: Mice were fasted for 4 h for insulin resistance test and intraperitoneally injected with 1 unit/kg of insulin. Blood glucose levels were measured from the tail vein blood at 0, 15, 30, 45, 60, 90, and 120 min after injection. Plasma insulin levels were measured using an ultrasensitive mouse insulin ELISA kit (Nanjing Jiancheng Bioengineering Institute, Nanjing, China).

db/db mice [4] = assay: Weekly fasting glucose levels of db/db mice; settings: BJ 150mg/kg, individual mice 1-10, in mmol/L
Description: as §1

CC(C)Cc1ccc(C(C)C(=O)[O-])cc1.COc1ccc2cc3[n+](cc2c1OC)CCc1cc2c(cc1-3)OCO2.O.O.O.O [BJ, berberine-ibuprofen] was tested, and the Body weight (db/db mice [1]; day 1, individual mice) was 41 grams and 43 grams and 40 grams and 37 grams and 39 grams and 36 grams, the Body weight (db/db mice [1]; day 4, individual mice) was 44 grams and 41 grams and 43 grams and 40 grams and 42 grams and 38 grams and 36 grams and the Body weight (db/db mice [1]; day 7, individual mice) was 44 grams and 42 grams and 41 grams and 43 grams and 38 grams and 37 grams. For the same compound, the Body weight (db/db mice [1]; day 10, individual mice) was 43 grams and 42 grams and 45 grams and 41 grams and 37 grams and 40 grams, the Body weight (db/db mice [1]; day 13, individual mice) was 44 grams and 41 grams and 45 grams and 42 grams and 43 grams and 38 grams and the Body weight (db/db mice [1]; day 16, individual mice) was 45 grams and 42 grams and 44 grams and 43 grams. For the same compound, the Body weight (db/db mice [1]; day 19, individual mice) was 43 grams and 41 grams and 44 grams and 42 grams and 40 grams, the Body weight (db/db mice [1]; day 22, individual mice) was 44 grams and 42 grams and 45 grams and 40 grams and 43 grams and 41 grams and the Body weight (db/db mice [1]; day 25, individual mice) was 41 grams and 43 grams and 42 grams and 45 grams and 40 grams. The Body weight (db/db mice [1]; day 28, individual mice) was 42 grams and 44 grams and 40 grams and 41 grams, the Body weight (db/db mice [1]; day 31, individual mice) was 45 grams and 47 grams and 44 grams and 43 grams and 42 grams and the Body weight (db/db mice [1]; day 34, individual mice) was 47 grams and 44 grams and 45 grams and 42 grams. For the same compound, the blood glucose level (db/db mice [2]; BJ 75mg/kg, time column 1 of 7 (time not printed)) was 20.1 and 18.7 and 23.3 and 22.6 and 20.8 and 20.2 and 20.6 and 15.8 and 20.7 and 22.7, the blood glucose level (db/db mice [2]; BJ 75mg/kg, time column 2 of 7 (time not given)) was 21.3 and 27.9 and 25.0 and 23.3 and 32.0 and 33.3 and 29.6 and 20.3 and 31.0 and 22.5 and the blood glucose level (db/db mice [2]; BJ 75mg/kg, time column 3 of 7 (time not given)) was 25.1 and 33.3 and 31.1 and 31.9 and 32.2 and 26.7. The blood glucose level (db/db mice [2]; BJ 75mg/kg, time column 4 of 7 (time not given)) was 33.3 and 28.6 and 24.9, the blood glucose level (db/db mice [2]; BJ 75mg/kg, time column 5 of 7 (time not given)) was 25.0 and 33.3 and 28.6 and 25.7 and the blood glucose level (db/db mice [2]; BJ 75mg/kg, time column 6 of 7 (time not given)) was 26.9 and 32.4 and 22.5 and 33.3 and 20.8 and 32.8 and 30.3 and 29.9 and 20.2. The blood glucose level (db/db mice [2]; BJ 75mg/kg, time column 7 of 7 (time not printed)) was 21.0 and 21.5 and 15.3 and 26.4 and 28.8 and 24.7 and 26.0 and 25.3 and 26.9 and 16.4, the blood glucose level (db/db mice [2]; BJ 150mg/kg, time column 1 of 7 (time not printed)) was 12.0 and 14.3 and 12.4 and 10.8 and 14.8 and 13.7 and 8.5 and 12.9 and 8.8 and the blood glucose level (db/db mice [2]; BJ 150mg/kg, time column 2 of 7 (time not given)) was 24.8 and 23.3 and 26.1 and 33.3 and 20.2 and 23.4 and 28.2 and 30.8 and 29.1 and 25.2. For the same compound, the blood glucose level (db/db mice [2]; BJ 150mg/kg, time column 3 of 7 (time not given)) was 31.0 and 22.6 and 27.1 and 30.2 and 22.1 and 22.4 and 32.2 and 33.3 and 23.0, the blood glucose level (db/db mice [2]; BJ 150mg/kg, time column 4 of 7 (time not given)) was 26.1 and 17.6 and 23.8 and 30.3 and 21.9 and 29.5 and 24.9 and 26.9 and 22.2 and the blood glucose level (db/db mice [2]; BJ 150mg/kg, time column 5 of 7 (time not given)) was 20.8 and 17.8 and 22.3 and 28.7 and 16.3 and 18.2 and 27.2 and 18.3 and 22.0 and 20.3. For the same compound, the blood glucose level (db/db mice [2]; BJ 150mg/kg, time column 6 of 7 (time not given)) was 15.4 and 12.6 and 20.1 and 26.1 and 19.2 and 14.9 and 22.1 and 18.6 and 17.9 and 16.7, the blood glucose level (db/db mice [2]; BJ 150mg/kg, time column 7 of 7 (time not printed)) was 13.0 and 7.9 and 19.2 and 20.7 and 15.2 and 15.7 and 19.8 and 14.7 and 16.2 and 15.3 and the blood glucose level (db/db mice [3]; time column 1 of 7 (time not printed)) was 9.6 and 12.9 and 10.6 and 10.3 and 20.2. For the same compound, the blood glucose level (db/db mice [3]; time column 2 of 7 (time not given)) was 9.2 and 11.0 and 10.2 and 19.5, the blood glucose level (db/db mice [3]; time column 3 of 7 (time not given)) was 4.3 and 6.3 and 5.8 and 11.8 and the blood glucose level (db/db mice [3]; time column 4 of 7 (time not given)) was 5.6 and 4.6 and 6.1 and 5.1 and 4.8 and 9.4. The blood glucose level (db/db mice [3]; time column 5 of 7 (time not given)) was 4.9 and 3.5 and 5.0 and 4.8 and 9.3, the blood glucose level (db/db mice [3]; time column 6 of 7 (time not given)) was 5.7 and 6.2 and 4.8 and 4.1 and 9.1 and the blood glucose level (db/db mice [3]; time column 7 of 7 (time not printed)) was 6.9 and 4.2 and 7.0 and 6.6 and 6.1 and 14.7. The “Weekly fasting glucose levels of db/db mice (Figure 5a)” value (from here on “Weekly fasting glucose levels”) (db/db mice [4]; 1st of 6 weekly columns (time not given)) was 11.6 and 15.2, the “Weekly fasting glucose levels” value (db/db mice [4]; 2nd of 6 weekly columns (time not given)) was 17.9 and 16.6 and the “Weekly fasting glucose levels” value (db/db mice [4]; 3rd of 6 weekly columns (time not given)) was 16.9. The “Weekly fasting glucose levels” value (db/db mice [4]; 4th of 6 weekly (time not given)) was 18.3 and 9.2 and 11.4, the “Weekly fasting glucose levels” value (db/db mice [4]; 5th of 6 weekly (time not given)) was 11.8 and 8.2 and 12.9 and the “Weekly fasting glucose levels” value (db/db mice [4]; 6th of 6 weekly (time not given)) was 10.6 and 7.9 and 10.2.
